Data taken from paper PMC7862700.
This is one part of the list. Construct or isoform of the protein are uncertain.

Target: T1, ELF2 (UniProt Q15723)
T1 sequence: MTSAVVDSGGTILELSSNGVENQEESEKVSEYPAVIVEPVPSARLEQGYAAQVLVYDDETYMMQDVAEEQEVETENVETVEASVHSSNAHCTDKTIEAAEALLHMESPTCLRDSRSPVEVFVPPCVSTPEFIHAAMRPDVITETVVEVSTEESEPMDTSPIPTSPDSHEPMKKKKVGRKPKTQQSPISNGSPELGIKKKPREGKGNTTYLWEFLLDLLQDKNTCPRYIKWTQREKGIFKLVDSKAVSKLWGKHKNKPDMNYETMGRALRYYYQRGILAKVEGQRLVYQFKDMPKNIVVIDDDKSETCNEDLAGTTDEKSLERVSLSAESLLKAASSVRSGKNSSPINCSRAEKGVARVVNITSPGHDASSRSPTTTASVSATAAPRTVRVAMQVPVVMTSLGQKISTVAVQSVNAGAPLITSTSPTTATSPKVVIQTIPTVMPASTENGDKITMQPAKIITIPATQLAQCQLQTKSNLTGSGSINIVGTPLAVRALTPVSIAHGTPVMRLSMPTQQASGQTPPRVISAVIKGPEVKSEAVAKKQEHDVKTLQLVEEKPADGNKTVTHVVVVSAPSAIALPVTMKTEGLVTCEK
Test: DAPPL (digital affinity profiling via proximity ligation, sequencing)
Conditions: 10 mM Tris-HCl pH 7.5, 50 mM NaCl, 1 mM DTT, 4% glycerol, room temperature, 30 min; GST-TFs on glutathione beads, 16-mer random dsDNA library, 0.1% …; high values mean tight binding; double strand, one strand shown; scale: fold enrichment (6-mer frequency, TF over GST control)

Sequence | binding signal
ATCTAT | 1.1
TTGTTC | 1.59
GATCGA | 0.778
ATTGTT | 1.53
TCGAGT | 0.888
GAGCTT | 0.982
ATGCCC | 1.26
GTTCCC | 1.32
TGCATT | 1.32
ATTACT | 1.27
TCCGTA | 1.94
AGAAAC | 0.969
GAAGTA | 2.69
TAATTA | 1.28
ACTTAG | 1.09
TATCAA | 1.02
GTGTTC | 1.18
CCTCCT | 1.48
CTCAAG | 1.12
GCTCCC | 1.23

For reference, part of the list above:
Sequence | binding signal
GAAGTA | 2.69
TAATTA | 1.28
ACTTAG | 1.09

More entries follow.

Sequence | binding signal
ACTCGA | 1.22
TCCGAG | 0.931
TTGAGG | 1.07
AAGTAT | 1.55
CGACAT | 1.23
AATTCG | 1.27
GCCCGA | 0.931
CGTTTC | 1.99
CGTCCT | 1.35
CGACAA | 1.13
ATTTGC | 1.23
CAACTC | 1.15
CCCAAA | 1.12
ATCTTA | 1.06
TCTCCT | 1.44
TATCAC | 1.22
CTGAAG | 1.06
CCGAAT | 1.19
GCCGAT | 1.08
AGAAAA | 1.01
